Laboratory results as given in patent publication US20210246204A1 (Alector, published 2021).
No constants are given. Whether binding was seen depends on the method and setting. Some entries that bind do so weakly or less than the wild type.

Chains of the proteins cited; added tags and fusions are not shown. Lines headed by an entry give the natural chain unless they say otherwise; changes in a name come on top.
UniProt Q9Y286: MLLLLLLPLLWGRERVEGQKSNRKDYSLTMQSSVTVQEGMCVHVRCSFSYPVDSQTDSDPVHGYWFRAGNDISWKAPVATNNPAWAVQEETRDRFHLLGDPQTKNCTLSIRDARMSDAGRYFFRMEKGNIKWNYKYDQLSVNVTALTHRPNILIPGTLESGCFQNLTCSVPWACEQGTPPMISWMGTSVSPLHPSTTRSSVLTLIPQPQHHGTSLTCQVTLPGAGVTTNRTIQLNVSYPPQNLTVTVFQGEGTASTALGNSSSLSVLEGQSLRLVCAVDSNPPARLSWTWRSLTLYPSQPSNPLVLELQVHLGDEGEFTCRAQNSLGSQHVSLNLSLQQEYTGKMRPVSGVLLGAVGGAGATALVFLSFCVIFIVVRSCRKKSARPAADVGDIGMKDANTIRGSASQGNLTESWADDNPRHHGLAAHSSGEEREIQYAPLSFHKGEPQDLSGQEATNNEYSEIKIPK

B1: S7AB-H8.1 (antibody, V domains shown)
VH: QVQLVQSGAEVKKPGASVKVSCKASGYAFTETWMNWVRQAPGQGLEWIGRIFPGLGHTNYAQKFQGRATLTEDTSTSTAYMELSSLRSEDTAVYYCARDYSDYYFDYWGQGTLVTVSS
VL: DIQMTQSPSSLSASVGDRVTITCRGSQDINTYLNWYQQKPGKAPKLLIYYTSRLHSGVPSRFSGSGSGTDYTLTISSLQPEDFATYYCQQGNLLPWTFGQGTKLEIK
B2: S7AB-H8.2 (antibody, V domains shown)
VH: QVQLVQSGAEVKKPGASVKVSCKASGYAFTMAWMNWVRQAPGQGLEWIGRIFPGYGHTNYAQKFQGRATLTEDTSTSTAYMELSSLRSEDTAVYYCARDYSDYYFDYWGQGTLVTVSS
VL: DIQMTQSPSSLSASVGDRVTITCRGSQDINTYLNWYQQKPGKAPKLLIYYTSRLHSGVPSRFSGSGSGTDYTLTISSLQPEDFATYYCQQGNLLPWTFGQGTKLEIK
B3: S7AB-H8.11 (antibody, V domains shown)
VH: QVQLVQSGAEVKKPGASVKVSCKASGYAFTETWMNWVRQAPGQGLEWIGRIFPGLGHTNYAQKFQGRATLTEDTSTSTAYMELSSLRSEDTAVYYCARDYSDYYFDYWGQGTLVTVSS
VL: DIQMTQSPSSLSASVGDRVTITCRGSQDINTYLNWYQQKPGKAPKLLIYYTSRLHSGVPSRFSGSGSGTDYTLTISSLQPEDFATYYCQGGNTLPWTFGQGTKLEIK
B4: S7AB-H8.13 (antibody, V domains shown)
VH: QVQLVQSGAEVKKPGASVKVSCKASGYAFTGYWMNWVRQAPGQGLEWIGRIFPGLGHTNYAQKFQGRATLTEDTSTSTAYMELSSLRSEDTAVYYCARDYSDYYFDYWGQGTLVTVSS
VL: DIQMTQSPSSLSASVGDRVTITCRGSQDINTYLNWYQQKPGKAPKLLIYYTSRLHSGVPSRFSGSGSGTDYTLTISSLQPEDFATYYCQGGNTLPWTFGQGTKLEIK
B5: S7AB-H8.18 (antibody, V domains shown)
VH: QVQLVQSGAEVKKPGASVKVSCKASGYAFTGYWMNWVRQAPGQGLEWIGRIFPGLGHTNYAQKFQGRATLTEDTSTSTAYMELSSLRSEDTAVYYCARDYSDYYFDYWGQGTLVTVSS
VL: DIQMTQSPSSLSASVGDRVTITCRGSQDTNTYLNWYQQKPGKAPKLLIYYTSRLHSGVPSRFSGSGSGTDYTLTISSLQPEDFATYYCQQGNTLPWTFGQGTKLEIK
B6: S7AB-H8.43 (antibody, V domains shown)
VH: QVQLVQSGAEVKKPGASVKVSCKASGYAFTGYWMNWVRQAPGQGLEWIGRIFPGLGHTNYAQKFQGRATLTEDTSTSTAYMELSSLRSEDTAVYYCARDYSDYYFDYWGQGTLVTVSS
VL: DIQMTQSPSSLSASVGDRVTITCRGSQDINTYLNWYQQKPGKAPKLLIYYTSRLHSGVPSRFSGSGSGTDYTLTISSLQPEDFATYYCQQGNILPWTFGQGTKLEIK
notes: also called S7AB-H.43

Key:
[1] = molecular target: human Siglec-7 on primary human monocyte-derived dendritic cells (human) (UniProt Q9Y286); experiment: flow cytometry on primary human monocyte-derived dendritic cells, 30 min on ice, fluorescent anti-human IgG secondary antibody
[2] = molecular target: human Siglec-7 on primary human monocyte-derived dendritic cells (human) (UniProt Q9Y286); experiment: flow cytometry, primary human dendritic cells
[3] = molecular target: histidine-tagged human Siglec-7 (NovoProtein) (human) (UniProt Q9Y286); experiment: BLI

| Binder | binding [1] | binding [2] | binding [3] |
| --- | --- | --- | --- |
| B1 | binds | binds |  |
| B2 | binds | binds | binds |
| B3 | binds | binds |  |
| B4 | binds | binds |  |
| B5 | binds |  |  |
| B6 | binds | binds | binds |
